Our source for the binding values is article PMC8674265.

Chains of the proteins cited; added tags and fusions are not shown.
UniProt Q92600: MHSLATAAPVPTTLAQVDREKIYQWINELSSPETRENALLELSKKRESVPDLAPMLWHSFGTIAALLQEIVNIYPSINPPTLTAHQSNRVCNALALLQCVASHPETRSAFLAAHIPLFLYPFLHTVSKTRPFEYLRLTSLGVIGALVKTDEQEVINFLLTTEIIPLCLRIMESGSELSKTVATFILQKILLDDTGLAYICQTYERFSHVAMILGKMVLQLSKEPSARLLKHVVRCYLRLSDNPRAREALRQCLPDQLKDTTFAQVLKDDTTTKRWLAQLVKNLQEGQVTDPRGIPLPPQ
UniProt O75530: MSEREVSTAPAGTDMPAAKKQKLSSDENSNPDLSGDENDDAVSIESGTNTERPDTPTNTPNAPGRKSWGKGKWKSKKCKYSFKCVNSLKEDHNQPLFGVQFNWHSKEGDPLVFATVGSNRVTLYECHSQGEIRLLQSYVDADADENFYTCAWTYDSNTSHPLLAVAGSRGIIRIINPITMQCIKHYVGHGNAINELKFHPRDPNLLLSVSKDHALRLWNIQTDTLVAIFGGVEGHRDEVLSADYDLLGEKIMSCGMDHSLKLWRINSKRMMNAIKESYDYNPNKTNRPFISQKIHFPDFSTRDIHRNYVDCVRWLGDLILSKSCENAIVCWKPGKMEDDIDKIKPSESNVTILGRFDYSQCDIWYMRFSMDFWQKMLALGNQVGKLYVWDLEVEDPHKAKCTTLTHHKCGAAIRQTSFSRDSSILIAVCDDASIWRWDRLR
UniProt Q92833: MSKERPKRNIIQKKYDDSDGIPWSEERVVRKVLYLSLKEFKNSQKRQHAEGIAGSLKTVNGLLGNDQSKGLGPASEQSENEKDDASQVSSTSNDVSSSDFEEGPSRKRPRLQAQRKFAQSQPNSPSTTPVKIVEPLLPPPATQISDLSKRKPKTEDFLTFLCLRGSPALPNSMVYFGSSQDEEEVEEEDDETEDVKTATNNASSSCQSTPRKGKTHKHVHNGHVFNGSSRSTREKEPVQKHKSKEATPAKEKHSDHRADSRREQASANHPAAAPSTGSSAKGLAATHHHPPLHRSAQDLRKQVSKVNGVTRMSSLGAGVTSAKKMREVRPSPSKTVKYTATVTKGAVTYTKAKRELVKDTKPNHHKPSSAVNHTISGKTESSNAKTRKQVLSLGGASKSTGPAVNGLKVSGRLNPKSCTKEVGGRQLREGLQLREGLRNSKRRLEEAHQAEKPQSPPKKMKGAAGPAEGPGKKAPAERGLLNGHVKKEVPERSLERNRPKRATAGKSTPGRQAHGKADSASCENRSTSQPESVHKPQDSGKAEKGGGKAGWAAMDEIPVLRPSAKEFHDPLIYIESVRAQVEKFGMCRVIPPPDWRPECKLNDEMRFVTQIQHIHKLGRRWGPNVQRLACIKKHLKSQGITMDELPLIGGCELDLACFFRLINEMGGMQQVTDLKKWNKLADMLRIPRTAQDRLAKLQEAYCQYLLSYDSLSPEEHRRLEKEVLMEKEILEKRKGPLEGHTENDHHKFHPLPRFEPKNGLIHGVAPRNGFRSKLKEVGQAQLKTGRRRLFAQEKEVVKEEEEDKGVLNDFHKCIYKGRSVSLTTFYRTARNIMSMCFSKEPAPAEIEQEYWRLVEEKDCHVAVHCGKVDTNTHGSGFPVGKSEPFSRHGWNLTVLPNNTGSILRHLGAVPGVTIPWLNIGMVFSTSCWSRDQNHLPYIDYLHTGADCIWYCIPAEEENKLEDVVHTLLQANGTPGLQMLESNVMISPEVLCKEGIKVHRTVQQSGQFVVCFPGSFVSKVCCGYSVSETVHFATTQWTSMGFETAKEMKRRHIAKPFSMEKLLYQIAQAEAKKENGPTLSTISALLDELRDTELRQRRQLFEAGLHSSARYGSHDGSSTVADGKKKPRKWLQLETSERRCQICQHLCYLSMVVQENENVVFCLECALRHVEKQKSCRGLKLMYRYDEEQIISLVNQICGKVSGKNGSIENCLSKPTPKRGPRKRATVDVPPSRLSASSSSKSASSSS
UniProt O00567: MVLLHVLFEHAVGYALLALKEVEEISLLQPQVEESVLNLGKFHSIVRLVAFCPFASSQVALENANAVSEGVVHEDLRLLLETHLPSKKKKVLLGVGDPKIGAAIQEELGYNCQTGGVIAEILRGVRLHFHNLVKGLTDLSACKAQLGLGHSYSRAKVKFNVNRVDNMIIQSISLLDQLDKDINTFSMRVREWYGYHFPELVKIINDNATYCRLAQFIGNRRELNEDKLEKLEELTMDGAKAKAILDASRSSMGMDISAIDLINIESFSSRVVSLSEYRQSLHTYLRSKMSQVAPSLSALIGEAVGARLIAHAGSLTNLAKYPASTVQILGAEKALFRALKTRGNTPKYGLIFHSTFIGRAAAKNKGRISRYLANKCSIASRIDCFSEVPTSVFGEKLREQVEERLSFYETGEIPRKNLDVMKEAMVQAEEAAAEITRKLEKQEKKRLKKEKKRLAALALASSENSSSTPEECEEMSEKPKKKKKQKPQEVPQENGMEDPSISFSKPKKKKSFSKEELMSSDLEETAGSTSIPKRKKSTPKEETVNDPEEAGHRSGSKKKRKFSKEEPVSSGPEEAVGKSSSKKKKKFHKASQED
UniProt Q96L73: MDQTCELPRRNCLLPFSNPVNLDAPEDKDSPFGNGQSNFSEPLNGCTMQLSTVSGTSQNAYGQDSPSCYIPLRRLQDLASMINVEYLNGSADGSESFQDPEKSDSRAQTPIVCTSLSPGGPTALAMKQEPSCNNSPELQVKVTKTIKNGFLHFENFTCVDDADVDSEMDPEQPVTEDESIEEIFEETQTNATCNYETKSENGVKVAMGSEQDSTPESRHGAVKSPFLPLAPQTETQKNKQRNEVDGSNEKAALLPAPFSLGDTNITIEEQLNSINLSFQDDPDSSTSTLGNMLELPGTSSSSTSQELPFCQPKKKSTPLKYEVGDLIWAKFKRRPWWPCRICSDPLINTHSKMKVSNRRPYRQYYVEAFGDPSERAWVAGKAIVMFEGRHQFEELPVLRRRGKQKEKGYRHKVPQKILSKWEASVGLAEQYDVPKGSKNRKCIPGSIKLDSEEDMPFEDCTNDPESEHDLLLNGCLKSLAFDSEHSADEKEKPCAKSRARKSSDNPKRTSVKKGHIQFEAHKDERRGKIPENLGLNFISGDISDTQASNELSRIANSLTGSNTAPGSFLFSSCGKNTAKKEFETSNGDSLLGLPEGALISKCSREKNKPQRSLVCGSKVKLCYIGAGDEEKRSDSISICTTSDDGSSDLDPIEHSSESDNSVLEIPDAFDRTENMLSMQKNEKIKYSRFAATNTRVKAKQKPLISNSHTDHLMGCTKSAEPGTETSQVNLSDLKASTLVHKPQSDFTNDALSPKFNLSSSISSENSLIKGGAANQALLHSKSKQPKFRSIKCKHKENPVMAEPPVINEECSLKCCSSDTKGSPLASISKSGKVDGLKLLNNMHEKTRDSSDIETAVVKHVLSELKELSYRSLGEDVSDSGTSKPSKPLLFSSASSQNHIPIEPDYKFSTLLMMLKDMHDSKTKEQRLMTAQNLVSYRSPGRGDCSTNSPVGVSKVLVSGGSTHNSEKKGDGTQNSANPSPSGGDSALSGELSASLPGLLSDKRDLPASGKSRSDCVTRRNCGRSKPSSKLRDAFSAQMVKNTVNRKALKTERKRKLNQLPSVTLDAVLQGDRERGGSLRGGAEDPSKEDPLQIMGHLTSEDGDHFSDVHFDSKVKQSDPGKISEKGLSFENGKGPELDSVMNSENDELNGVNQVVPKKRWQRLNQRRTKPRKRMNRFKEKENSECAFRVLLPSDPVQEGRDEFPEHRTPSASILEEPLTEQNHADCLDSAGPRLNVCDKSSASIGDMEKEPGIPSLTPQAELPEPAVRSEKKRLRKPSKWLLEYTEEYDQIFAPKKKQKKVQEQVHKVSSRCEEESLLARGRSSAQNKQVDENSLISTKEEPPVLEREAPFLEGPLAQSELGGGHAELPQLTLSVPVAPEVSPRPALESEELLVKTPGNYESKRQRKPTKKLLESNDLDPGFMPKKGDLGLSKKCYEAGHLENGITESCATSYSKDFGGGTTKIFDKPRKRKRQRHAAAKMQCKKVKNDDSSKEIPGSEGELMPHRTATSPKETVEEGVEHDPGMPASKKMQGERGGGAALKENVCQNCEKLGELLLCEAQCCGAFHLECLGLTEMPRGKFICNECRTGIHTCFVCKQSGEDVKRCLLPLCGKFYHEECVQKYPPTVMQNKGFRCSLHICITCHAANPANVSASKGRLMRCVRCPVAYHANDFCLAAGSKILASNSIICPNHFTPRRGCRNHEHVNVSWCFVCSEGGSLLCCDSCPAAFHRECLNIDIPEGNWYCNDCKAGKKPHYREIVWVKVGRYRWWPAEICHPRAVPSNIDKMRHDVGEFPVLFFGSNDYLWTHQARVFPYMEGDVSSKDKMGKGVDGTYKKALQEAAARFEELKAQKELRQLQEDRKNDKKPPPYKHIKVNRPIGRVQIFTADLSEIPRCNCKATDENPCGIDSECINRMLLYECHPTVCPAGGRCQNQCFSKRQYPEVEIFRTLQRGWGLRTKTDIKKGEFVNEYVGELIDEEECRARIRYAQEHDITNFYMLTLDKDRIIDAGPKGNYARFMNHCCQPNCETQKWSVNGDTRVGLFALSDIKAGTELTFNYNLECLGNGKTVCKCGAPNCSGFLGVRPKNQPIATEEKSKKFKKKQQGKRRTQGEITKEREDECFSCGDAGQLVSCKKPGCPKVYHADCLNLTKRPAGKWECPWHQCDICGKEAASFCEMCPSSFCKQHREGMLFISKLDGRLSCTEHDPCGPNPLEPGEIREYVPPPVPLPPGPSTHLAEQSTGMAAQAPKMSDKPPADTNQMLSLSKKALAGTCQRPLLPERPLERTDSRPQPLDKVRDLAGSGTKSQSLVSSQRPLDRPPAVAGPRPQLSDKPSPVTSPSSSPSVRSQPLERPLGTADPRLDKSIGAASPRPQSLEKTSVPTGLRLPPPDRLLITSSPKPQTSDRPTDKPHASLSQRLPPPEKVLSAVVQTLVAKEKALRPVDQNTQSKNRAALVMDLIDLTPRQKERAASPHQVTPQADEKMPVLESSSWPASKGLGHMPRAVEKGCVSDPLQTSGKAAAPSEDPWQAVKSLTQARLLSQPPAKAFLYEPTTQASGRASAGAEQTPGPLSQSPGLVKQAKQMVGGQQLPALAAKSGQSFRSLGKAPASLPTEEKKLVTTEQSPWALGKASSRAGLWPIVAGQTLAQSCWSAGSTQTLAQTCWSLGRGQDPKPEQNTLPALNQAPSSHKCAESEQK
UniProt Q9H4L4: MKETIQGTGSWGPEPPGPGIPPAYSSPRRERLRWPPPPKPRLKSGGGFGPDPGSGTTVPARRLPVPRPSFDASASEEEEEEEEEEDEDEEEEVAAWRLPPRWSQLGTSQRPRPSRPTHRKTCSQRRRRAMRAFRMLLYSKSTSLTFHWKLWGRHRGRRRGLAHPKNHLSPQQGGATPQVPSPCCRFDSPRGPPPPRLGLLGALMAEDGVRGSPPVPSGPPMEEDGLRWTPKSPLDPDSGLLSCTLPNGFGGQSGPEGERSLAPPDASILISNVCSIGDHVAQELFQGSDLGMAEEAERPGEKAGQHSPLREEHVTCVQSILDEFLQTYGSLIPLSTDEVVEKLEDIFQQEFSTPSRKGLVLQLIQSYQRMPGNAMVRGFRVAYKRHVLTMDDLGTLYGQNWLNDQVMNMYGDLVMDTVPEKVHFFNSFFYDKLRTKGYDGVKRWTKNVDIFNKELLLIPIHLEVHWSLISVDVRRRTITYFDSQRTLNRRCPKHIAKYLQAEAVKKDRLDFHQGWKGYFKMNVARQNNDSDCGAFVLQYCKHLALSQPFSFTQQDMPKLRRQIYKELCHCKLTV
UniProt Q9BYJ9: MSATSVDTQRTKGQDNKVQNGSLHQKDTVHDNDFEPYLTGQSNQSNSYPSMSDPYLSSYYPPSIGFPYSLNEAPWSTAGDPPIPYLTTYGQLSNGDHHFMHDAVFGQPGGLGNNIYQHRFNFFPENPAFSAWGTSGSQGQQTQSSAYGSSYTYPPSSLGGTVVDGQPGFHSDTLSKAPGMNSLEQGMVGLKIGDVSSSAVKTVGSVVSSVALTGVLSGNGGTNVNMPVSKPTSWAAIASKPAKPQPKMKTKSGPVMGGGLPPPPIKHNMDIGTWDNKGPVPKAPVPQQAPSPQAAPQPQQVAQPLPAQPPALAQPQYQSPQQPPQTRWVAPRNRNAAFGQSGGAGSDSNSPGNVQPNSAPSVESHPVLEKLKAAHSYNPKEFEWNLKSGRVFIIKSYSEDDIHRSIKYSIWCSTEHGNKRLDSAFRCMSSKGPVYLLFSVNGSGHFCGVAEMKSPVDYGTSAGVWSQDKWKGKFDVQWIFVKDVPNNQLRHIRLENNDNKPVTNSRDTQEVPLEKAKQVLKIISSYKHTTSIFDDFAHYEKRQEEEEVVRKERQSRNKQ

Results are given in words; binding and its absence hold for the method and conditions named. In cells and extracts the contact can be indirect. Here binding means that the protein was enriched with, or labelled near, the bait; the list need not be complete. No binding means not detected with the bait.

Sequences and labels used below:
T1: ELM2 and SANT domain-containing protein 1 (ELMSAN1) (human (endogenous in HEK293T and Hela.cl1)) (UniProt Q6PJG2)
T1 sequence: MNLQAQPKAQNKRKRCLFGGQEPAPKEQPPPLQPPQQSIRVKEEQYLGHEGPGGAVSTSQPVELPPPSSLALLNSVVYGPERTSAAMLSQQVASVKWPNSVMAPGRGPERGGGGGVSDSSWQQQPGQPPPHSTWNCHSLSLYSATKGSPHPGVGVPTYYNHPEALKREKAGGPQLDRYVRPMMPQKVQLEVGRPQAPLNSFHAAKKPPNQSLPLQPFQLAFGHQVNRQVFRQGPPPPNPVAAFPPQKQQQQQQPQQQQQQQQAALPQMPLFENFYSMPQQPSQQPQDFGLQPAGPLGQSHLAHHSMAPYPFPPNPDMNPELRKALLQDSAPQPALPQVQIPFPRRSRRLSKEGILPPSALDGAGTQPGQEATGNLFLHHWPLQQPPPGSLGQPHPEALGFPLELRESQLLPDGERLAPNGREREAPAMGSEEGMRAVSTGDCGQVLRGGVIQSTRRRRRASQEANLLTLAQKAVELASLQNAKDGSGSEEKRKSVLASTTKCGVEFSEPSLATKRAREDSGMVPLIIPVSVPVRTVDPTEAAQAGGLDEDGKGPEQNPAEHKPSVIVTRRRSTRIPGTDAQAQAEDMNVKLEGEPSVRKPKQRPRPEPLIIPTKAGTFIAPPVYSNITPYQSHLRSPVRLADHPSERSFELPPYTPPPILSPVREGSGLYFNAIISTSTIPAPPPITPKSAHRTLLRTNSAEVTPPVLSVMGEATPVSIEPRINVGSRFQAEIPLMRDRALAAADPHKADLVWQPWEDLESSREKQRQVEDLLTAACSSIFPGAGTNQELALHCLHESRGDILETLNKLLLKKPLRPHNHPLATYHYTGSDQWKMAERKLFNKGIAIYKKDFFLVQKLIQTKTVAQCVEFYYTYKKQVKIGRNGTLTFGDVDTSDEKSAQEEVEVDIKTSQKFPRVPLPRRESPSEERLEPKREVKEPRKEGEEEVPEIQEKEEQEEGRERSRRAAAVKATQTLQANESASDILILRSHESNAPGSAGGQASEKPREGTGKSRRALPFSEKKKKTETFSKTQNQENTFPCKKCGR

B1: NOP58 (protein, UniProt Q9Y2X3 1-529)
chain: MLVLFETSVGYAIFKVLNEKKLQEVDSLWKEFETPEKANKIVKLKHFEKFQDTAEALAAFTALMEGKINKQLKKVLKKIVKEAHEPLAVADAKLGGVIKEKLNLSCIHSPVVNELMRGIRSQMDGLIPGVEPREMAAMCLGLAHSLSRYRLKFSADKVDTMIVQAISLLDDLDKELNNYIMRCREWYGWHFPELGKIISDNLTYCKCLQKVGDRKNYASAKLSELLPEEVEAEVKAAAEISMGTEVSEEDICNILHLCTQVIEISEYRTQLYEYLQNRMMAIAPNVTVMVGELVGARLIAHAGSLLNLAKHAASTVQILGAEKALFRALKSRRDTPKYGLIYHASLVGQTSPKHKGKISRMLAAKTVLAIRYDAFGEDSSSAMGVENRAKLEARLRTLEDRGIRKISGTGKALAKTEKYEHKSEVKTYDPSGDSTLPTCSKKRKIEQVDKEDEITEKKAKKAKIKVKVEEEEEEKVAEEEETSVKKKKKRGKKKHIKEEPLSEEEPCTSTAIASPEKKKKKKKKRENED
B2: DROSHA (protein, UniProt Q9NRR4 1-1374)
chain: MMQGNTCHRMSFHPGRGCPRGRGGHGARPSAPSFRPQNLRLLHPQQPPVQYQYEPPSAPSTTFSNSPAPNFLPPRPDFVPFPPPMPPSAQGPLPPCPIRPPFPNHQMRHPFPVPPCFPPMPPPMPCPNNPPVPGAPPGQGTFPFMMPPPSMPHPPPPPVMPQQVNYQYPPGYSHHNFPPPSFNSFQNNPSSFLPSANNSSSPHFRHLPPYPLPKAPSERRSPERLKHYDDHRHRDHSHGRGERHRSLDRRERGRSPDRRRQDSRYRSDYDRGRTPSRHRSYERSRERERERHRHRDNRRSPSLERSYKKEYKRSGRSYGLSVVPEPAGCTPELPGEIIKNTDSWAPPLEIVNHRSPSREKKRARWEEEKDRWSDNQSSGKDKNYTSIKEKEPEETMPDKNEEEEEELLKPVWIRCTHSENYYSSDPMDQVGDSTVVGTSRLRDLYDKFEEELGSRQEKAKAARPPWEPPKTKLDEDLESSSESECESDEDSTCSSSSDSEVFDVIAEIKRKKAHPDRLHDELWYNDPGQMNDGPLCKCSAKARRTGIRHSIYPGEEAIKPCRPMTNNAGRLFHYRITVSPPTNFLTDRPTVIEYDDHEYIFEGFSMFAHAPLTNIPLCKVIRFNIDYTIHFIEEMMPENFCVKGLELFSLFLFRDILELYDWNLKGPLFEDSPPCCPRFHFMPRFVRFLPDGGKEVLSMHQILLYLLRCSKALVPEEEIANMLQWEELEWQKYAEECKGMIVTNPGTKPSSVRIDQLDREQFNPDVITFPIIVHFGIRPAQLSYAGDPQYQKLWKSYVKLRHLLANSPKVKQTDKQKLAQREEALQKIRQKNTMRREVTVELSSQGFWKTGIRSDVCQHAMMLPVLTHHIRYHQCLMHLDKLIGYTFQDRCLLQLAMTHPSHHLNFGMNPDHARNSLSNCGIRQPKYGDRKVHHMHMRKKGINTLINIMSRLGQDDPTPSRINHNERLEFLGDAVVEFLTSVHLYYLFPSLEEGGLATYRTAIVQNQHLAMLAKKLELDRFMLYAHGPDLCRESDLRHAMANCFEALIGAVYLEGSLEEAKQLFGRLLFNDPDLREVWLNYPLHPLQLQEPNTDRQLIETSPVLQKLTEFEEAIGVIFTHVRLLARAFTLRTVGFNHLTLGHNQRMEFLGDSIMQLVATEYLFIHFPDHHEGHLTLLRSSLVNNRTQAKVAEELGMQEYAITNDKTKRPVALRTKTLADLLESFIAALYIDKDLEYVHTFMNVCFFPRLKEFILNQDWNDPKSQLQQCCLTLRTEGKEPDIPLYKTLQTVGPSHARTYTVAVYFKGERIGCGKGPSIQQAEMGAAMDALEKYNFPQMAHQKRFIERKYRQELKEMRWEREHQEREPDETEDIKK
B3: polynucleotide 5′-kinase, NOL9 (protein, UniProt Q5SY16 1-702)
chain: MADSGLLLKRGSCRSTWLRVRKARPQLILSRRPRRRLGSLRWCGRRRLRWRLLQAQASGVDWREGARQVSRAAAARRPNTATPSPIPSPTPASEPESEPELESASSCHRPLLIPPVRPVGPGRALLLLPVEQGFTFSGICRVTCLYGQVQVFGFTISQGQPAQDIFSVYTHSCLSIHALHYSQPEKSKKELKREARNLLKSHLNLDDRRWSMQNFSPQCSIVLLEHLKTATVNFITSYPGSSYIFVQESPTPQIKPEYLALRSVGIRREKKRKGLQLTESTLSALEELVNVSCEEVDGCPVILVCGSQDVGKSTFNRYLINHLLNSLPCVDYLECDLGQTEFTPPGCISLLNITEPVLGPPFTHLRTPQKMVYYGKPSCKNNYENYIDIVKYVFSAYKRESPLIVNTMGWVSDQGLLLLIDLIRLLSPSHVVQFRSDHSKYMPDLTPQYVDDMDGLYTKSKTKMRNRRFRLAAFADALEFADEEKESPVEFTGHKLIGVYTDFAFRITPRNRESHNKILRDLSILSYLSQLQPPMPKPLSPLHSLTPYQVPFNAVALRITHSDVAPTHILYAVNASWVGLCKIQDDVRGYTNGPILLAQTPICDCLGFGICRGIDMEKRLYHILTPVPPEELRTVNCLLVGAIAIPHCVLKCQRGIEGTVPYVTTDYNFKLPGASEKIGAREPEEAHKEKPYRRPKFCRKMK
B4: NHP2 (protein, UniProt Q9NX24 1-153)
chain: MTKIKADPDGPEAQAEACSGERTYQELLVNQNPIAQPLASRRLTRKLYKCIKKAVKQKQIRRGVKEVQKFVNKGEKGIMVLAGDTLPIEVYCHLPVMCEDRNLPYVYIPSKTDLGAAAGSKRPTCVIMVKPHEEYQEAYDECLEEVQSLPLPL

The assay has as its target T1, ELM2 and SANT domain-containing protein 1 (ELMSAN1) (human (endogenous in HEK293T and Hela.cl1)). In words: affinity purification with mass spectrometry; HEK293T nuclear extract precipitated with 5 µg rabbit anti-ELMSAN1 antibody and protein A magnetic beads, eluted with 0.5 M ammonium hydroxide, LC-MS/MS; controls water or normal rabbit IgG; enrichment by spectral counts and SAINT (FC-A > 1); four experiments.
Regarding AGO2 (from UniProt Q9UKV8 1-859), the binding entry is “binds”.

For the molecule CDC5L (from UniProt Q99459 1-802), the binding result is listed as “binds”.

For CHD3 (from UniProt Q12873 1-2000), the binding entry is recorded as “binds”. With CHD6 (from UniProt Q8TD26 1-2715), the binding entry is recorded as “binds”. CNOT1 (from UniProt A5YKK6 1-2376): the binding result is on record as “binds”. As for CNOT9 (from UniProt Q92600 1-299), the binding entry was “binds”. With DICER1 (from UniProt Q9UPY3 1-1922) the entry was “binds”; with DNAJC13 (from UniProt O75165 1-2243), “binds”; with EED (from UniProt O75530 1-441), “binds”. Regarding JARID2 (from UniProt Q92833 1-1246), the binding entry is given as “binds weakly”. As to KMT2A (from UniProt Q03164 1-3969), the binding entry is given as “binds”. With KRI1 (from UniProt Q8N9T8 1-703), the binding entry is “binds”. Turning to METTL3 (from UniProt Q86U44 1-580), the binding result was “no binding”.

Take NIFK (from UniProt Q9BYG3 1-293): the binding result is given as “binds”. For the molecule NOP56 (from UniProt O00567 1-594), the binding entry is “binds”. NSD1 (from UniProt Q96L73 1-2696): the binding result is reported as “binds”. With NSD2 (from UniProt O96028 1-1365) the entry was “binds”; with SENP3 (from UniProt Q9H4L4 1-574), “binds”; with SMARCD1 (from UniProt Q96GM5 1-515), “binds”.

As for SUV39H2 (from UniProt Q9H5I1 1-410), the binding result is reported as “no binding”. For SUZ12 (from UniProt Q15022 1-739), the binding result was “binds weakly”. Consider YTHDF1 (from UniProt Q9BYJ9 1-559), for which the binding result is listed as “binds”. Regarding YTHDF3 (from UniProt Q7Z739 1-585), the binding result is given as “binds”. “histone deacetylase HDAC2 (from UniProt Q92769 1-488)”: the binding entry is given as “binds”. As for “midasin (MDN1) (from UniProt Q9NU22 1-5596)”, the binding result is on record as “binds”. As for “proliferation marker protein Ki67 (MKI67) (from UniProt P46013 1-3256)”, the binding result is reported as “binds”. Regarding B1, the binding result is listed as “binds”. For the molecule B2, the binding entry was “binds”. Regarding B3, the binding result is listed as “binds”. With B4, the binding entry was “binds”.
